Laboratory results published in PubChem BioAssay AID485314 (National Center for Advancing Translational Sciences (NCATS), 2010).
Several values for one entry are separate records, joined by “and”; a condition that tells them apart may be missing. Equal values may be shown once. The campaign covered roughly 340,000 compounds. About 4,500 (1.3%) were called active. This list was built around the results that the source calls inconclusive (neither active nor inactive); the mix of calls is not that of the screen. Calls come from the whole dose curve; as a rule, active = well fitted inhibition curve with a large enough effect; inconclusive = small, poorly fitted or top-dose-only effect, or another doubt; inactive = no such curve, though single readings can be large or run the other way. A potency beside an inconclusive call is a rough fit, not a confirmed value.

target: DNA polymerase beta (Homo sapiens) (UniProt P06746); test: qHTS Assay for Inhibitors of DNA Polymerase Beta; details: Pol beta primer extension/strand displacement, fluorescence kinetic; activity change, negative = inhibition: at 114 µM (top of the series)
Method in brief: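 Pol beta (10 nM) and compounds were preincubated 15 min at room temperature, then 50 nM substrate (final) started primer extension/strand displacement. Reads were taken at 0 and 10 min; concentration-response data were fitted to a four-parameter Hill equation.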
% is set by controls: 0 for no effect and ±100 for the full control effect; potency is the fitted concentration of half-maximal effect.

SMILES	Potency	activity change, negative = inhibition
O=C(CCCCCCCCC(=O)N/N=C/c1ccco1)N/N=C/c1ccco1	active: 50.1 µM	–
CCOC(=O)c1nc(NCc2ccc(Cl)cc2)c2c(C)noc2n1	–	inactive: 7.54%
CC(C)(C)C(=O)Nc1nc(-c2ccccc2)ns1	inconclusive: 100 µM [inhibitor, single point]	–
O=c1c(-c2ccccc2)c[nH]n1-c1cccc([N+](=O)[O-])c1	inconclusive: 100 µM [inhibitor, single point]	–
Cc1cccn2c(=O)c3cc(C#N)c(=O)n(-c4nnc(SCc5ccc(Cl)cc5)s4)c3nc12	inconclusive: 7.08 µM [inhibitor, partial curve, poor fit]	–
COc1ccc(C(=O)Nc2cccc(/C=C(\CCC(=O)O)c3nc4ccccc4s3)c2)cc1	–	inconclusive: -93.5% [inhibitor]
Cc1ccc(CN(C(=O)COc2cc(C)c(Cl)c(C)c2)c2ccccn2)o1	inconclusive: 100 µM [inhibitor, single point]	–
Cc1ccc(-n2nnnc2SCC(=O)NC(C(=O)O)(c2ccccc2)c2ccccc2)cc1C	inconclusive: 63.1 µM [inhibitor, single point]	–
COc1cccc(C(=O)CC(=O)C(=O)Nc2ccc([N+](=O)[O-])cc2C)c1	inconclusive: 89.1 µM [inhibitor, single point]	–
Cc1ccccc1C(=O)Nc1ccc(C(=O)N/N=C/c2ccc(F)cc2)cc1	active: 39.8 µM	–
CCOc1ccc(-c2c(C)nn3c(C)c(C(=O)Nc4cc(C)cc(C)c4)cnc23)cc1OCC	–	inactive: -6.23%
O=C(O)c1ccc(Cl)c(S(=O)(=O)NCc2ccco2)c1	inconclusive: 89.1 µM [inhibitor, single point]	–
CC(C)Sc1ncc(Cl)c(C(=O)Nc2ccc(S(=O)(=O)N3CCCCC3)cc2)n1	–	inactive: 15.4%
O=c1oc2c(CN3CCOCC3)c(O)c(Cl)cc2c2c1CCC2	inconclusive: 0.562 µM [inhibitor, single point]	–
CCn1c(O)c(N=NC(=O)CNc2cccc(C)c2)c2ccccc21	inconclusive: 100 µM [inhibitor, single point]	–
O=C(CN1C(=O)S/C(=C\c2cc(Cl)c(O)c(Cl)c2)C1=O)Nc1ccccc1	–	inactive: 12.6%
COc1ccc(OC)c(NC(=O)CSc2nnnn2C)c1	inconclusive: 89.1 µM [inhibitor, single point]	–
COc1ccccc1N1CCN(S(=O)(=O)c2c(C)nc3sccn3c2=O)CC1	–	inactive: -1.41%
Cc1ccc(S(=O)(=O)c2c(O)cc(C)c(NS(=O)(=O)c3ccc(Cl)cc3)c2C)cc1	inconclusive: 31.6 µM [inhibitor, partial curve]	–
COc1ccc(-c2cn3c(C)c(C(=O)Nc4cccc(NC(C)=O)c4)sc3n2)cc1	inconclusive: 89.1 µM [inhibitor, single point]	–
CC(=O)CCC1C2C(O)C(C(C)C)C(OC(=O)/C=C/c3ccccc3)CC12C (stereo not drawn)	inconclusive: 0.141 µM [inhibitor, full curve]	–
Cc1ccc(N2CC(NC(=O)c3cc4ccccc4o3)CC2=O)cc1 (stereo not drawn)	–	inactive: -21.6%
O=C(/C=C/c1ccco1)NC(=S)NNC(=O)c1ccco1	inconclusive: 14.1 µM [inhibitor, full curve]	–

SMILES	Potency	activity change, negative = inhibition
Cc1cc(C)c2nc(Cl)c(CN(Cc3ccco3)C(=O)Nc3ccccc3C)cc2c1	–	inactive: 0.902%
CC(=O)NNC(=O)c1[nH]c2ccc(Cl)cc2c1-c1ccccc1	inconclusive: 89.1 µM [inhibitor, single point]	–
Cc1cccc(-n2c(C)cc(/C=C3/C(=N)N4C(c5ccccc5)=CSC4=NC3=O)c2C)c1	–	inactive: -20.4%
Cc1nn2c(C)c(C(=O)NC(C)(C)C)cnc2c1-c1ccc(F)cc1	–	inactive: 9.04%
COC(=O)c1ccc(CSc2nnc(NC(=O)C3CC(=O)N(Cc4ccc(C)cc4)C3)s2)cc1 (stereo not drawn)	inconclusive: 39.8 µM [inhibitor, single point]	–
Cc1[nH]c(=O)[nH]c(=O)c1S(=O)(=O)Nc1ccc(Br)cc1F	–	inactive: 4.23%
CC1=CCC2C(=O)N(c3cccc(C(=O)NC(C)c4ccccc4)c3)C(=O)C2C1 (stereo not drawn)	active: 39.8 µM	–
CCCc1nn2c(=O)cc(COC(=O)c3ccc(NC(=O)COc4ccccc4)cc3)nc2s1	inconclusive: 89.1 µM [inhibitor, single point]	–
CC(C)(C)c1ccc(C(=O)Nc2ccc(S(=O)(=O)Nc3cnc4ccccc4n3)cc2)cc1	inconclusive: 44.7 µM [inhibitor, single point]	–
CCN(CC)S(=O)(=O)c1cccc(C(=O)NNC(=O)c2ccc3[nH]c(=O)c(=O)[nH]c3c2)c1	inconclusive: 39.8 µM [inhibitor, single point]	–
Cc1nc2ncnn2c(C)c1Cc1ccc(Cl)cc1F	inconclusive: 79.4 µM [inhibitor, single point]	–
O=S(=O)(Nc1ccc(Br)cn1)c1ccc2ccccc2c1	–	inactive: 9.81%
CCCc1nnc(NC(=O)CSc2ncn[nH]2)s1	inconclusive: 89.1 µM [inhibitor, single point]	–
COc1ccc(Nc2cc(C(=O)NCCCN3CCN(c4ccccc4F)CC3)c3ccccc3n2)c(OC)c1	–	inactive: 17.3%
Cc1ccc(Cn2c(CO)cnc2SCC(=O)Nc2ccc(C)c(Cl)c2)cc1	–	inactive: -17.8%
CCC(Oc1ccc(F)cc1)C(=O)Nc1c(C(=O)c2ccc(C)cc2)oc2ccccc12 (stereo not drawn)	–	inactive: 36.8%
Cc1ccc(C(=O)NCCn2cc(SCC(=O)Nc3nnc(C)s3)c3ccccc32)cc1	inconclusive: 20 µM [inhibitor, full curve, poor fit]	–
CCCCOc1ccc(-c2csc(N)n2)cc1[N+](=O)[O-]	inconclusive: 70.8 µM [inhibitor, single point]	–
COc1ccc(-c2nc3scc(CCNS(=O)(=O)c4ccc(F)cc4C)n3n2)cc1	–	inactive: -11.5%
COc1cccc(N2CCN(C(=O)C3CCN(S(=O)(=O)c4c(C)noc4/C=C/c4ccccc4F)CC3)CC2)c1	inconclusive: 0.562 µM [inhibitor, full curve, poor fit]	–
O=C1C=C(Nc2cccc3cccnc23)c2ccccc2C1=O	inconclusive: 79.4 µM [inhibitor, single point]	–
CC(/C=C1\SC(=S)N(CCC(=O)Nc2cccc(C(=O)O)c2)C1=O)=C\c1ccccc1	inconclusive: 70.8 µM [inhibitor, single point]	–
CCC(=O)Nc1ccc(C(=O)N/N=C/c2ccc([N+](=O)[O-])cc2)cc1	inconclusive: 89.1 µM [inhibitor, single point]	–

SMILES	Potency	activity change, negative = inhibition
CCCC(=O)OCc1cnc(C)c2oc(=O)c(C(=O)Nc3cccc(C(F)(F)F)c3)cc12	–	inactive: 28.3%
Cc1cccc(N2CCN(C(=O)C3CCN(S(=O)(=O)c4c(C)noc4C)CC3)CC2C)c1 (stereo not drawn)	inconclusive: 79.4 µM [inhibitor, single point]	–
CCOc1cc(CNc2ccc3cn[nH]c3c2)ccc1OC	–	inactive: -13.2%
O=C(Cn1ncc2c3ccccc3n(Cc3cccc(Cl)c3)c2c1=O)Nc1ccc(F)cc1F	active: 22.4 µM	–
O=C1S/C(=C\C=C\c2ccco2)C(=O)N1c1ccccc1	active: 31.6 µM	–
COc1cc(CNC(=O)c2ccc3c(c2)c(C)c(C)n3Cc2cccc(C)c2)cc(OC)c1OC	–	inactive: -1.63%
CCc1ccc(NC(=O)/C(C#N)=C\c2ccc(OC)c(C(=O)O)c2)cc1	–	inactive: -3.41%
COc1ccc(N2CCN(C(=O)C3CCCN(S(=O)(=O)c4c(C)noc4C)C3)CC2)cc1 (stereo not drawn)	inconclusive: 3.16 µM [inhibitor, full curve]	–
O=C1NC(=Nc2ccccc2Cl)S/C1=C\c1cccc([N+](=O)[O-])c1O	inconclusive: 22.4 µM [inhibitor, single point]	–
Cc1cccc(C)c1NC(=O)C(NS(=O)(=O)c1cccs1)c1ccccc1 (stereo not drawn)	inconclusive: 79.4 µM [inhibitor, partial curve, poor fit] and inconclusive: 79.4 µM [inhibitor, single point]	–
Cc1cc(=O)oc2cc(OCc3ccc(C(=O)OCC(=O)N(C)C4CCS(=O)(=O)C4)cc3)ccc12 (stereo not drawn)	inconclusive: 89.1 µM [inhibitor, single point]	–
O=C(NCCC1=CCCCC1)c1ccc(Cl)c(S(=O)(=O)Nc2ccccc2)c1	inconclusive: 70.8 µM [inhibitor, single point]	–
Cc1ccc(-n2c(SCC(=O)NCc3ccco3)nc3nc4c(cc3c2=O)COC(C)(C)C4)cc1	active: 79.4 µM	–
CCNc1nc(C)c(CN(C(C)=O)c2ccccc2)nc1C#N	inconclusive: 70.8 µM [inhibitor, single point]	–
COc1cccc2c1cc1c(=O)n(CC(=O)NCc3ccco3)nc(C)n12	–	inactive: -4.94%
COc1ccc(C(=O)N/N=C/c2sc(=O)n(Cc3cccc(C(=O)O)c3)c2Cl)cc1	–	inactive: -6.54%
COc1ccc(-n2c(=O)c3c4c(sc3n(C)c2=O)CN(C(C)=O)CC4)cc1	inconclusive: 1.26 µM [inhibitor, full curve, poor fit]	–
Cc1ccc2oc(C(=O)N(Cc3sccc3C)C3CCS(=O)(=O)C3)c(C)c2c1 (stereo not drawn)	inconclusive: 0.891 µM [inhibitor, full curve, poor fit]	–
COc1ccccc1CNC(=O)C(=O)NCC(c1cccs1)S(=O)(=O)c1cccs1 (stereo not drawn)	–	inactive: 9.72%
Cc1cccc(Oc2ccc(NC(=O)c3ccccc3C(=O)O)cc2)c1C	inconclusive: 15.8 µM [inhibitor, single point]	–
CN1C(=O)c2cccc(NCCCN3C(=O)c4ccccc4C3=O)c2C1=O	inconclusive: 7.08 µM [inhibitor, full curve]	–
CCN(CC)C(=O)c1ccc(/C=C/c2c[nH]c3ccccc23)[n+](C)c1	–	inactive: 10.6%

Shown as labelled records: part of the list above.
COc1ccc(C(=O)N/N=C/c2sc(=O)n(Cc3cccc(C(=O)O)c3)c2Cl)cc1
  activity change, negative = inhibition: inactive: -6.54%
COc1ccc(-n2c(=O)c3c4c(sc3n(C)c2=O)CN(C(C)=O)CC4)cc1
  Potency: inconclusive: 1.26 µM [inhibitor, full curve, poor fit]
Cc1ccc2oc(C(=O)N(Cc3sccc3C)C3CCS(=O)(=O)C3)c(C)c2c1 (stereo not drawn)
  Potency: inconclusive: 0.891 µM [inhibitor, full curve, poor fit]
COc1ccccc1CNC(=O)C(=O)NCC(c1cccs1)S(=O)(=O)c1cccs1 (stereo not drawn)
  activity change, negative = inhibition: inactive: 9.72%
